Test results: publication PMC10721207
No constants are given. Whether binding was seen depends on the method and setting. In cells and extracts the contact can be indirect. Some results given as binding are weak or reduced against the parent protein; the word gives no strength.

By UniProt entry, the sequences of proteins in these tests, tags left out.
UniProt Q93ZT6: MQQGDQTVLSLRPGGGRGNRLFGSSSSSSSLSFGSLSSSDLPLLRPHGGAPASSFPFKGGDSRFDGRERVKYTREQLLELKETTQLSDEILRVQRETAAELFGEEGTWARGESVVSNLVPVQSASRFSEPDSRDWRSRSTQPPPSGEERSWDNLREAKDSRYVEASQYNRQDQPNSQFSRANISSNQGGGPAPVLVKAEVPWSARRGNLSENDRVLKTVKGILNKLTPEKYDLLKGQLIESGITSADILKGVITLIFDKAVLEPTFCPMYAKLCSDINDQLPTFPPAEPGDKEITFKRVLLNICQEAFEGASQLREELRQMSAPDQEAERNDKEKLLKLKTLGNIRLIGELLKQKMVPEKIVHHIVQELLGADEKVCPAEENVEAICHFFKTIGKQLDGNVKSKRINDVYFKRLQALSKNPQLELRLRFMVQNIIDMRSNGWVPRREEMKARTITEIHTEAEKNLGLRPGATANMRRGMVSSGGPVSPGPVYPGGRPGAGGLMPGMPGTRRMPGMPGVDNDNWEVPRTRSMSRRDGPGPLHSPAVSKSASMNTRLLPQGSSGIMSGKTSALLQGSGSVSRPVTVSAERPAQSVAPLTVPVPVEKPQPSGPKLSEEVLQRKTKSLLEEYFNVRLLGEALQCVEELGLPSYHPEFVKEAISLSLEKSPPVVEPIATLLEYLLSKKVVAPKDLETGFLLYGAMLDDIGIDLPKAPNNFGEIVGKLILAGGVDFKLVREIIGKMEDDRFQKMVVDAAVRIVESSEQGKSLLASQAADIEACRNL

Target: T1, eIFiso4E (Arabidopsis thaliana (endogenous in Col-0 plants)) (UniProt O04663)
T1 sequence: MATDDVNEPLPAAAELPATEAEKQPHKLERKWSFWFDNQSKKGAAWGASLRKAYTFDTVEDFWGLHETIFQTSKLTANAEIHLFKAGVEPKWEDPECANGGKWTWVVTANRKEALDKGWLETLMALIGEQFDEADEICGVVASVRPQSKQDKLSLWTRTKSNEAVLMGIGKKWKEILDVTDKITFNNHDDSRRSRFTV
Assay: pull-down; m7GTP-agarose beads incubated 1 hour at 4°C with young-leaf lysates (wild-type and eif4e1KO, mock or TuMV-inoculated, 14 dpi); one wash; western blot with anti-eIFiso4G1 antibodies

- binding: binds
Substance: eIFiso4G1 (from UniProt Q93ZT6 1-780)
